Results of single-concentration screens

By UniProt entry, the sequences of proteins in these tests, tags left out. Residues count along the entry.
UniProt A4I591, 1-473: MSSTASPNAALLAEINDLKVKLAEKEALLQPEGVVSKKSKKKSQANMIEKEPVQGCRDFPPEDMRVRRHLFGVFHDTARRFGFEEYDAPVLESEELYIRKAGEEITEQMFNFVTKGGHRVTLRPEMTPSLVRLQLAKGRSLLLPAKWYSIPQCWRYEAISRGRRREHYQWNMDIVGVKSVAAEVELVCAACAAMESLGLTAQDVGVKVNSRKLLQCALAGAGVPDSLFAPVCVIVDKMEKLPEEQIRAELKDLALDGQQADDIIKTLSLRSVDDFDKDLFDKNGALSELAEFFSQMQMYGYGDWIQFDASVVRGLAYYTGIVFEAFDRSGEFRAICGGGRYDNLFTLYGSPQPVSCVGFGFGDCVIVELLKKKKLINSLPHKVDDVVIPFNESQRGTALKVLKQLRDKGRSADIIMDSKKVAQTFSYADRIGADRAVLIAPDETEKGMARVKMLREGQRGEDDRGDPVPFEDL

The values are deposited in ChEMBL (CHEMBL3988442, “University of Dundee, Small-Polar-MMV Screening Library” (2021)).

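Enzyme assay of histidyl-tRNA synthetase; the read-out is not stated. Target: Histidine-tRNA ligase, Leishmania infantum (UniProt A4I591). Concentration: 30 µM. Higher reads as stronger inhibition (inferred: compounds with an IC50 in retests scored well above the rest). The assay is labelled LdHisRS but filed under L. infantum. Of about 69,000 compounds tested this way, about 410 (0.6%) reached 50% or more in at least one test.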

Each number is a percent effect as filed. The controls that fix the scale are not given in the record; negative values are as filed. This is an unselected part of the compounds tested.

{"structure": "COc1cc(C)c(C(C)NC(=O)Nc2nnc(C)s2)cc1OC", "stereo": "centres unmarked", "percent effect": 20.75}
{"structure": "O=C(CCCn1cncn1)N1CCC2(CC1)[C@H](O)C[C@@H]2OCCO", "percent effect": 13.49}
{"structure": "CN1CC(=O)N(c2cccnc2)CC12CCN(C(=O)C1CCCCC1)C2", "stereo": "centres unmarked", "percent effect": 15.09}
{"structure": "COC1(CNC(=O)NCc2ccccc2)CCSC1", "stereo": "centres unmarked", "percent effect": 5.128}
{"structure": "O=C1CC(N(C(=O)c2ccc(F)c(F)c2)C2CC2)C(=O)N1", "stereo": "centres unmarked", "percent effect": 3.39}
{"structure": "Cc1nc(C2(NCc3cc(C#N)ccc3F)CCCCC2)no1", "percent effect": 25.71}
{"structure": "CC(=O)N1CCN(CC=C(C)C)CC1", "percent effect": 1.042}
{"structure": "CCOc1cc(F)ccc1NC(=O)N(C)Cc1cnn(C)c1", "percent effect": -6.14}
{"structure": "Cc1ccccc1CN1CCC[C@H]1c1nc(-c2cncnc2N)no1", "percent effect": 22.97}
{"structure": "CCOC(=O)C1(Cc2ccccc2)CCCN(Cc2nccn2CC)C1", "stereo": "centres unmarked", "percent effect": 21.33}
{"structure": "CN(Cc1ccccc1)C1COC2(CCN(Cc3nccs3)CC2)C1", "stereo": "centres unmarked", "percent effect": -16.98}
{"structure": "Cc1noc(C)c1-c1cccc(CC2CCN(C(=O)CN)C2)n1", "stereo": "centres unmarked", "percent effect": 10.31}
{"structure": "c1cncc(COC[C@@H]2CCC[C@@]23CNCCO3)c1", "percent effect": 13.64}
{"structure": "Cc1ccc2c(n1)N(CCN(C)C)CCN(C(=O)c1ccoc1)C2", "percent effect": 15}
{"structure": "CC(C)(C)c1cnc(CN2CCC(CN3CCOCC3)CC2)o1", "percent effect": 17.12}
{"structure": "COc1cc(-c2cnnc(NCC3CC3)n2)cc(OC)c1OC", "percent effect": -2.083}
{"structure": "Cc1nc2c(c(=O)n1C)CCN(C(=O)Cn1cccc1)CC2", "percent effect": 12.12}
{"structure": "N#Cc1nccnc1NC1CCN(c2c(F)cccc2F)C1", "stereo": "centres unmarked", "percent effect": 19.33}
{"structure": "CCNc1cc2c(nn1)CCN(C(=O)Cc1c(C)noc1C)C2", "percent effect": 1.515}
{"structure": "CO[C@H]1CCN(S(=O)(=O)c2cn(C)cn2)[C@H]1Cc1ccccc1", "percent effect": 27.78}
{"structure": "CCc1cc(NCCNc2ccncc2C)n2nc(C)c(C)c2n1", "percent effect": 1.887}
{"structure": "Cc1cccc(CN2CCN3C(=O)NC[C@H]3C2)n1", "percent effect": 11.11}
{"structure": "Cc1ccccc1N1CCCN(C(=O)c2cn(C)c3ccccc23)CC1", "percent effect": 19.83}
{"structure": "OC1(CN2CCC(Cc3ncccn3)CC2)CCOCC1", "percent effect": -2.857}
{"structure": "NC(=O)N1CCC2(CC1)CN(Cc1cccnc1)C(=O)CO2", "percent effect": 26.83}
{"structure": "C[C@@H]1CN(c2cc(N3CCC(O)CC3)ncn2)C[C@@]1(O)C1CCC1", "percent effect": 0}
{"structure": "CCOc1ccc(CNCc2cccnc2N(C)C)cc1", "percent effect": 13.04}
{"structure": "CN1Cc2ccccc2N(CC(O)C(F)(F)F)CCC1=O", "stereo": "centres unmarked", "percent effect": 16.33}
{"structure": "Cc1ccc(-c2cnc3n2CCN(C)C32CCN(CC3CC3)CC2)cc1", "percent effect": 16.24}

Some entries from above, unchanged:

structure,percent effect
CCOc1ccc(CNCc2cccnc2N(C)C)cc1,13.04
Cc1nc2c(c(=O)n1C)CCN(C(=O)Cn1cccc1)CC2,12.12